This data set is described as follows: general procedure: Boc solid-phase peptide synthesis; Boc Thr(OBzl)Pam resin; methoxybenzhydrylamine resin for C-terminal amides; HBTU (FastBoc single couplings); DEPBT for lactam analogs. The note with it: conjugation step, analytical HPLC, Zorbax C8, 214 nm; MALDI mass spectral analysis.
Regarding Glucagon Cys^29 Mal-PEG-5K, the “final HPLC purity” value is “greater than 95%”. With Glucagon Cys17 Mal-PEG-5K the entry was “approx. 90%”; with Glucagon Cys^24 Mal-PEG-20K, “˜90%”.

For the origin of these results see patent US8450270B2 (Indiana University Research and Technology Corporation, priority 2008, dated 2013).
